Measured values as given in paper PMC7242080.
No constants are given. Whether binding was seen depends on the method and setting. In cells and extracts the contact can be indirect. Some binding calls cover weakened binding; strength is not graded here. Tags and fused reporters may be left off the sequences shown.

Molecular target: T1, RPS4-HA (Arabidopsis thaliana (Col-0)) (UniProt Q9XGM3)
T1 sequence: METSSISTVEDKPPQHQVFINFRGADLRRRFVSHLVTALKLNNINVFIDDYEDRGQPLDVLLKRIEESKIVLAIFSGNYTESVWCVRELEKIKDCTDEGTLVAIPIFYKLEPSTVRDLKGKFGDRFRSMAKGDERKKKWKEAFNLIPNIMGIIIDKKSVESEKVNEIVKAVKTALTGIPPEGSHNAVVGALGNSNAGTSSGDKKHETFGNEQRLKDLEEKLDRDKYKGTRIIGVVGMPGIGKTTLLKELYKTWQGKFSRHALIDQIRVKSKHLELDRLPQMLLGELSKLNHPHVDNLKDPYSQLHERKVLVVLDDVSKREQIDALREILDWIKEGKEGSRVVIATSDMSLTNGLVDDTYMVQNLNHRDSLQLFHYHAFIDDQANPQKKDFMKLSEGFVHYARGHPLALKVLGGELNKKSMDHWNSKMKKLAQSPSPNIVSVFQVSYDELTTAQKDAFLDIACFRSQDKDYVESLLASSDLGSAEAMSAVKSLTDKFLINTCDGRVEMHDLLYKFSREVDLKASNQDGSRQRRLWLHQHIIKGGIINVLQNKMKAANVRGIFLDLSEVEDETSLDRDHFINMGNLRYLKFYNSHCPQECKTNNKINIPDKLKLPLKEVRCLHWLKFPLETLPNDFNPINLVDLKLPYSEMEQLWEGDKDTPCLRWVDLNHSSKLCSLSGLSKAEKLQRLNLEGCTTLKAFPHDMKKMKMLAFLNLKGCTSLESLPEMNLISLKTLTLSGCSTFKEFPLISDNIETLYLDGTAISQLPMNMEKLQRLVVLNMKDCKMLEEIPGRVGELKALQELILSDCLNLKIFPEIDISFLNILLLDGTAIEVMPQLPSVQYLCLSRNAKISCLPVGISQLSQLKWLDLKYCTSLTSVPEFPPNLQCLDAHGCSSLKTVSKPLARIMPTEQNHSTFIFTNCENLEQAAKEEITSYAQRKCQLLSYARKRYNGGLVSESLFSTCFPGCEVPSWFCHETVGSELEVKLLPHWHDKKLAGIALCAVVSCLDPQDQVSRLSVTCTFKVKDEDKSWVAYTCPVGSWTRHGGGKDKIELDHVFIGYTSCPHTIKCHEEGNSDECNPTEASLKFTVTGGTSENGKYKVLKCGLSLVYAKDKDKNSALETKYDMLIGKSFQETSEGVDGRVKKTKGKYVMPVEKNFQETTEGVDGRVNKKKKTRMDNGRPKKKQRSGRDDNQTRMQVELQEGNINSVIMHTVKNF
Assay: co-IP; RPS4-HA immunoprecipitated with anti-HA-conjugated beads from crude extracts of SETI_WT and SETI_E187A seedlings (7 DAG) treated with 0.1% DMSO or 50 uM estradiol for 3 h; IP buffer 10% glycerol, 50 mM Tris-HCl pH 6.8, 50 mM KCl, 1 mM EDTA, 5 mM MgCl2, 1% NP-40, 10 mM DTT, 1 mM dATP; RRS1-R-HF detected by anti-Flag immunoblot

binding: binds
B1: RRS1-R-HF (protein, UniProt C4B7M5 1-1373)
chain: MTNCEKDEEFVCISCVEEVRYSFVSHLSEALRRKGINNVVVGVDSDDLLFKESQAKIEKAGVSVMVLPGNCDPSDVWLDKFAKVLECQRNNKDQAVVPVLYGDSLLRDQWLSELDFKGLSRIHQSRKECSDSILVEEIVRDVYETHFYVGRIGIYSKLLEIENMVNKQPIGIRCVGIWGMPGIGKTTLAKAVFDQMSSAFDASCFIEDYDKSIHEKGLYCLLEEQLLPGNDATIMKLSSLRDRLNSKRVLVVLDDVRNALVGESFLEGFDWLGPGSLIIITSRDKQVFCLCGINQIYEVQGLNEKEARQLFLLSASIKEDMGEQNLQELSVRVINYANGNPLAINVYGRELKGKKKLSEMETAFLKLKRRPPFKIVDAFKSTYDTLSDNEKNIFLDIACFFQGENVNYVIQLLEGCGFFPHVEIDVLVDKCLVTISENRVWLHKLTQDIGREIINGETVQIERRRRLWEPWSIKYLLEYNEHKANGEPKTTFKRAQGSEEIEGLFLDTSNLRFDLQPSAFKNMLNLRLLKIYCSNPEVHPVINFPTGSLHSLPNELRLLHWENYPLKSLPQNFDPRHLVEINMPYSQLQKLWGGTKNLEMLRTIRLCHSHHLVDIDDLLKAENLEVIDLQGCTRLQNFPAAGRLLRLRDVNLSGCIKIKSVLEIPPNIEKLHLQGTGILALPVSTVKPNHRELVNFLTEIPGLSEASKLERLTSLLESNSSCQDLGKLICLELKDCSCLQSLPNMANLDLNVLDLSGCSSLNSIQGFPRFLKQLYLGGTAIREVPQLPQSLEILNAHGSCLRSLPNMANLEFLKVLDLSGCSELETIQGFPRNLKELYFAGTTLREVPQLPLSLEVLNAHGSDSEKLPMHYKFNNFFDLSQQVVNDFFLKTLTYVKHIPRGYTQELINKAPTFSFSAPSHTNQNATFDLQPGSSVMTRLNHSWRNTLVGFGMLVEVAFPEDYCDATDFGISCVCRWSNKEGRSCRIERNFHCWAPGKVVPKVRKDHTFVFSDVNMRPSTGEGNDPDIWAGLVVFEFFPINQQTKCLNDRFTVTRCGVRVINVATGNTSLENISLVLSLDPVEVSGYEVLRVSYDDLQEMDKVLFLYIASLFNDEDVDFVAPLIAGIDLDVSSGLKVLADVSLISVSSNGEIVMHSLQRQMGKEILHGQSMLLSDCESSMTENLSDVPKKEKKHRESKVKKVVSIPAIDEGDLWTWRKYGQKDILGSRFPRGYYRCAYKFTHGCKATKQVQRSETDSNMLAITYLSEHNHPRPTKRKALADSTRSTSSSICSAITTSASSRVFQNKDEPNKPHLPSSSTPPGNAAVLFKMTDMEEFQDNMEVDNDVVDTRTLALFPEFQHQPEEEYPWSTFFDY
